From patent US11298333B1, “Methods of reducing the risk of cardiovascular events in a subject” (Amarin Pharmaceuticals Ireland Limited, priority 2018, dated 2022)
Entries after “also recorded” stand apart in the source; their conditions may differ. Read-outs that look alike come from different tables or passages of the source. For at least one compound, name, drawing or mass did not settle the structure.

What was measured:
[1] = test system: statin-treated patients by baseline triglyceride tertile; assay: REDUCE-IT Example 4: ischemic events as a function of baseline triglyceride tertile; type: in vivo, human; settings: baseline TG 81 to 1401 mg/dL
[2] = test system: statin-treated patients with a history of atherosclerosis or diabetes; assay: REDUCE-IT Example 2: recurrent and total ischemic events (Andersen-Gill, Wei-Lin-Weissfeld); type: in vivo, human
Excerpt: The following study was a multi-center, placebo-controlled clinical trial the details of which are described above in Example 1, the REDUCE-IT design. […] Randomization was stratified by cardiovascular risk cohort (i.e., secondary or primary prevention), use of ezetimibe, and by geographic region.
The primary outcome for the study was total recurrent events consisting of the composite of cardiovascular death, nonfatal myocardial infarction, nonfatal stroke, coronary revascularization, or hospitalization for unstable angina. Recurrent event analyses were also performed for the key secondary endpoint, a composite of cardiovascular death, non-fatal myocardial infarction, or non-fatal stroke. For each of these composite endpoints, the effects of icosapent ethyl in the secondary and primary prevention strata were examined separately.
Demographic and baseline disease characteristics are presented using frequencies and percentages for categorical variables and medians with interquartile ranges for continuous variables. Between treatment group comparisons were derived using the chi-square test for categorical variables and Wilcoxon rank test for continuous variables. All clinical endpoint events used in the efficacy analyses were adjudicated by an independent Clinical Endpoint Committee (CEC) who were blinded to the treatment assignment. Since the primary efficacy endpoint was the time from randomization to the first occurrence of any component of the composite endpoint, and recurrence of such events within each patient is possible, a pre-specified analysis using a Cox proportional-hazard with the counting-process formulation of Andersen and Gill was performed to model the first and all recurrent cardiovascular events. Hazard ratios (HR) and corresponding 95% confidence intervals (CI) are reported from this model. In addition, as a marginal model and an extension of survival models based on the Cox proportional hazard model, the modified Wei-Lin-Weissfeld (WLW) method for analysis of recurrent events in the presence of deaths was carried out as a supportive analysis. In addition, as pre-specified, a recurrent event analysis using the Andersen-Gill and Wei-Lin-Weissfeld methods were carried out for the individual primary event components other than CV death. Though not pre-specified, additional recurrent event analyses were performed for the key secondary endpoint, which is a composite of CV death, non-fatal MI, or non-fatal stroke, and for the primary endpoint and the key secondary endpoint in the primary and secondary prevention strata to explore further the consistency of clinical benefit of icosapent ethyl. In subgroup analyses of the two cardiovascular risk strata (i.e., primary and secondary prevention), site-level discrepancies in cardiovascular risk group assignment occurring at entry and detected during the study (1.8%) were adjusted to conform with documented medical history data prior to randomization. All efficacy analyses were performed according to the intention-to-treat principle. All tests were based on a 2-sided nominal significance level of 5% with no adjustments for multiple comparisons.

[3] = test system: hypertriglyceridemic patients with cardiovascular disease or at high risk for cardiovascular disease; type: in vivo; settings: for Influence of baseline triglyceride levels (≥150 vs <150 or ≥200 vs <200 mg/dL) on primary endpoint outcomes / Influence of baseline triglyceride levels (≥150 vs <150 or ≥200 vs <200 mg/dL) on key secondary endpoint outcomes: prespecified subgroups; for Influence of baseline triglyceride levels (≥150 vs <150 or ≥200 vs <200 mg/dL) on primary endpoint outcomes: FIGS. 6 and 7; for Influence of baseline triglyceride levels (≥150 vs <150 or ≥200 vs <200 mg/dL) on key secondary endpoint outcomes: FIGS. 8 and 9
Excerpt: The following study, also referred to as the REDUCE-IT clinical trial, was a large cardiovascular (CV) outcome trial designed to assess CV risk reduction benefit of AMR101 treatment (commercially known as VASCEPA®) versus placebo on the 5-point primary composite endpoint: CV death, non-fatal stroke, non-fatal myocardial infarction (MI), coronary revascularizations, or unstable angina requiring hospitalization.
A multi-center, prospective, randomized, double-blind, placebo-controlled, parallel-group study was performed to evaluate the effect of AMR101 (4 g per day) on cardiovascular health and mortality in hypertriglyceridemic patients with cardiovascular disease or at high risk for cardiovascular disease. The intended expanded indication of the study was treatment with AMR101 as an add-on to statin therapy to reduce the risk of cardiovascular events in patients with clinical cardiovascular disease or with multiple risk factors for cardiovascular disease.
The primary objective of this study was, in patients at LDL-C goal while on statin therapy, with established cardiovascular disease (CVD) or at high risk for CVD, and hypertriglyceridemia (e.g., fasting triglycerides (TG) ≥200 mg/dL and <500 mg/dL), to evaluate the effect of AMR101 4 g daily on time from randomization to first occurrence of any component of the composite of the following major CV events: CV death; nonfatal MI; (including silent MI; electrocardiograms (ECGs) were performed annually for the detection of silent MIs); nonfatal stroke; coronary revascularization; and unstable angina determined to be caused by myocardial ischemia by invasive/non-invasive testing and requiring emergent hospitalization.
The key secondary objective of this study was to evaluate the effect of AMR101 4 g daily on the time from randomization to the first occurrence of the composite of following major CV events: CV death, nonfatal MI (including silent MI), and nonfatal stroke.
Other secondary objectives for this study were to evaluate the effect of therapy on time from randomization to the first occurrence of the following individual or composite endpoints: composite of CV death or nonfatal MI (including silent MI); fatal or nonfatal MI (including silent MI); non-elective coronary revascularization represented as the composite of emergent or urgent classifications; CV death; unstable angina determined to be caused by myocardial ischemia by invasive/non-invasive testing and requiring emergent hospitalization; fatal or nonfatal stroke; composite of total mortality, nonfatal MI (including silent MI), or nonfatal stroke; and total mortality.
Primary Efficacy Endpoint: The primary efficacy endpoint was time from randomization to the first occurrence of the composite of the following clinical events: CV death; nonfatal MI (including silent MI; ECGs were performed annually for the detection of silent MIs); nonfatal stroke; coronary revascularization; and unstable angina determined to be caused by myocardial ischemia by invasive/non-invasive testing and requiring emergent hospitalization. The first occurrence of any of these major adverse vascular events during the follow-up period of the study were included in the incidence.
Secondary Efficacy Endpoints: The key secondary efficacy endpoint was the time from randomization to the first occurrence of the composite of CV death, nonfatal MI (including silent MI), or nonfatal stroke. […]

[4] = test system: statin-treated patients with a history of atherosclerosis or diabetes; assay: REDUCE-IT Example 3: total (first and subsequent) ischemic events (negative binomial, Andersen-Gill, Wei-Lin-Weissfeld Li-Lagakos, joint frailty; reduced and full dataset); type: in vivo, human
Excerpt: The following study was a multi-center, placebo-controlled clinical trial the details of which are described above in Example 1, the REDUCE-IT design. […] The main outcomes were total primary composite endpoint events defined as cardiovascular death, nonfatal myocardial infarction, nonfatal stroke, coronary revascularization, or hospitalization for unstable angina and total key secondary composite endpoint events defined as cardiovascular death, nonfatal myocardial infarction, or nonfatal stroke. In the context of this study, total events refer to any first event as well as any subsequent event. Differences in total events were determined using other statistical models, including Andersen-Gill, Wei-Lin-Weisfeld (Li and Lagakos), both pre-specified, and a post hoc and joint-frailty analysis.
For the present prespecified analysis, the primary outcome was the total of first plus subsequent ischemic events consisting of the composite of cardiovascular death, nonfatal myocardial infarction, nonfatal stroke, coronary revascularization, or hospitalization for unstable angina. […] Exploratory analyses of the total of first and subsequent events were also performed for the key secondary composite endpoint.
Baseline characteristics were compared between treatment groups using the chi-squared test for categorical variables and the Wilcoxon rank sum test for continuous variables. There are several methods for analyzing first and subsequent (recurrent) event data. As a pre-specified statistical method, a negative binomial regression was used to calculate rates and rate ratios for total cardiovascular events, which accounts for the variability in each patient's risk of events. As pre-specified supportive analyses, the modified Wei-Lin-Weissfeld method (Li and Lagakos modification) was used to calculate hazard ratios (HRs) for the time to the first event, second event, or third event. An additional pre-specified analysis, the Andersen-Gill model using a Cox proportional-hazard with the counting-process formulation was performed to model the total events. In addition, in order to account for informative censoring due to cardiovascular death, the HR for total non-fatal events was calculated using a joint frailty model (See Rondeau V. Joint frailty models for recurring events and death using maximum penalized likelihood estimation: application on cancer events. Biostatistics. 2007; 8:708-21). The joint frailty model simultaneously estimates hazard functions for non-fatal and fatal CV events and takes into account the fact that patients who are prone to have nonfatal events have an elevated risk of a cardiovascular death. […]
Statistical analyses using the full adjudicated endpoint events dataset without exclusions using this bundling approach were also determined.

With `CC/C=C\C/C=C\C/C=C\C/C=C\C/C=C\CCCC(=O)OCC` [Icosapent Ethyl, eicosapentaenoic acid ethyl ester] the “Total (first and subsequent) primary composite endpoint events across the entire triglyceride range and each tertile” value ([1]; FIG. 47) was “reduced; also recorded: statistically significant reductions”, the “Time to first event of the primary composite endpoint across the entire triglyceride range” value ([1]; FIG. 48) was “reduced; also recorded: statistically significant reductions” and the “First, second, and recurrent ischemic events compared to placebo” value ([2]; FIG. 13) was “reduced”. For the same compound, the “Times to first, second, third, or fourth occurrences of the primary composite endpoint vs placebo” value ([2]; FIG. 17) was “consistently reduced”, the “Total events for each component of the primary endpoint” value ([2]; FIG. 20) was “significantly reduced; also recorded: significant reductions” and the “Overall cumulative primary endpoints” value ([2]; FIGS. 14, 24) was “reduced”. For the same compound, the “Cumulative primary endpoints, secondary prevention cohort” value ([2]; FIGS. 15, 26) was “reduced”, the “Cumulative primary endpoints, primary prevention cohort” value ([2]; FIGS. 16, 28) was “reduced” and the “Overall cumulative key secondary endpoints” value ([2]; FIGS. 21, 25) was “reduced”. For the same compound, the “Cumulative key secondary endpoints, secondary prevention cohort” value ([2]; FIGS. 22, 27) was “reduced”, the “Cumulative key secondary endpoints, primary prevention cohort” value ([2]; FIGS. 23, 29) was “reduced” and the “Total ischemic events compared to placebo” value ([2]; secondary and primary prevention) was “superior; also recorded: significantly reduces”. For the same compound, the “Individual components of primary endpoint, time to first event of each” value ([3]; FIG. 4) was “reduced”, the “Individual and composite ischemic endpoints in prespecified hierarchical testing (all except death from any cause)” value ([3]; FIG. 11, vs placebo) was “significantly reduced” and the “Influence of achieved triglyceride level at 1 year (≥150 or <150 mg/dL) on efficacy vs placebo, primary or key secondary endpoint” value ([3]; FIGS. 10A and 10B) was “no influence”. The “Benefit vs placebo on primary endpoint according to LDL cholesterol change at 1 year in placebo patients” value ([3]; post hoc analysis) was “no substantial difference”, the “Influence of baseline triglyceride levels (≥150 vs <150 or ≥200 vs <200 mg/dL) on primary endpoint outcomes” value [3] was “did not influence” and the “Influence of baseline triglyceride levels (≥150 vs <150 or ≥200 vs <200 mg/dL) on primary endpoint outcomes” value ([3]; listed as AMR101) was “no influence”. For the same compound, the “Influence of baseline triglyceride levels (≥150 vs <150 or ≥200 vs <200 mg/dL) on key secondary endpoint outcomes” value [3] was “did not influence”, the “Influence of baseline triglyceride levels (≥150 vs <150 or ≥200 vs <200 mg/dL) on key secondary endpoint outcomes” value ([3]; listed as AMR101) was “no influence” and the “Times to first, second, and third occurrence of the primary and secondary endpoints vs placebo” value ([4]; FIG. 35) was “significantly reduced”. For the same compound, the “Times to first, second, third or fourth occurrence of the primary composite endpoint” value ([4]; FIG. 35) was “consistently reduced”, the “Total events for each individual component of the composite endpoints” value ([4]; FIG. 36) was “significantly reduced; also recorded: significant reductions” and the “Total and time to first primary and key secondary composite endpoint events vs placebo” value ([4]; FIGS. 34A and 34B) was “significantly reduced”.
